Assay results published in patent US20230203142A1, “TREATMENT OF METABOLIC DISORDERS THROUGH THE TARGETING OF A NOVEL CIRCULATING HORMONE COMPLEX” (The President and Fellows of Harvard College, priority 2020, published 2023).
Results are given in words; binding and its absence hold for the method and conditions named. Some entries that bind do so weakly or less than the wild type.

Sequences of proteins named here, by UniProt entry; tags and fusion partners are left off. A change or cut given only in a name is not applied to a line headed by its entry.
UniProt P15531: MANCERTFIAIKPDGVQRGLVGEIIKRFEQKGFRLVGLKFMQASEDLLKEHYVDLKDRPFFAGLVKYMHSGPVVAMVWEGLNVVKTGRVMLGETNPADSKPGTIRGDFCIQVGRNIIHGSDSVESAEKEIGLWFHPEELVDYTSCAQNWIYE
UniProt P55263: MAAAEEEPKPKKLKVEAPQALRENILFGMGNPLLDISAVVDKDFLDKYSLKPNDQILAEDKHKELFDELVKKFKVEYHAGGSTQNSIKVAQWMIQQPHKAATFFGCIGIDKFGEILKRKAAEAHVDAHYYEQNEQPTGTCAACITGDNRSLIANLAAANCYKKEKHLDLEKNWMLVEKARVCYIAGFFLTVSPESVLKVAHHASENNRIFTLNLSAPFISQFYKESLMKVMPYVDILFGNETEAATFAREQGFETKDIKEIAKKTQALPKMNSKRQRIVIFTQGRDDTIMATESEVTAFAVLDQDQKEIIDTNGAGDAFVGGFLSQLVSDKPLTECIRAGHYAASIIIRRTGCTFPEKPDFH

Biological target: human NDPK-A (nucleoside diphosphate kinase A), full-length recombinant (human) (UniProt P15531)
Experiment: MST

- binding: binds
Substance: human ADK (adenosine kinase), recombinant (from UniProt P55263 2-362) (enzyme)
